Values from PubChem BioAssay AID1259405 (NCATS, 2018).
Test: 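Knock-downs that lift recombinant protein yield in hamster ovary cells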 (primary screen). Cell system: Chinese hamster CHO-K1 ovary cells with stable secreted eGFP expression. Knock-down reagent: single siRNA against mouse genes, 0.8 pmol siRNA per well (2 µl of 400 nM stock). Duration: 3 days. Measured: 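Percent of the per-plate non-targeting control median for intracellular GFP per well by laser scanning cytometry and for cell viability by ATP luminescence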. Direction: GFP, % of control: higher = more GFP per well, higher productivity; viability (ATP), % of control: higher = more viable cells (more ATP). Active means: 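a knock-down is called active if GFP reaches 120% or more of non-targeting control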.
Shown is an unselected part of about 50,000 reagents. Over the whole deposit, about 4,000 (8%) are marked active. 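Mouse siRNA library applied to hamster cells; one well for each siRNA.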 Entries without a mark were called inactive.

Gene | PubChem SID | GFP, % of control | viability (ATP), % of control
Sh2d1b2 | SID363554966 | 54.9 | 53.9
Sh2d1b2 | SID363568413 | 89.4 | 49.1
Sh2d1b2 | SID363586472 | 84.2 | 82.6
Gm5622 | SID363540437 | 81.6 | 71.6
Gm5622 | SID363542189 | 70.8 | 41
Gm5622 | SID363567105 | 119 | 54.1
Eef1g | SID363572426 | 89.7 | 82.4
Eef1g | SID363574186 | 90.7 | 76.1
Mrpl32 | SID363562145 | 96 | 79.6
Mrpl32 | SID363567283 | 64.8 | 59.3
Mrpl32 | SID363584640 | 64.3 | 59.8
Dnajb8 | SID363572504 | 70.5 | 66.4
Dnajb8 | SID363577784 | 97.4 | 86.2
Dnajb8 | SID363582008 | 74.7 | 128
Agtr1b | SID363571127 | 73.6 | 66.1
Agtr1b | SID363571479 | 80.7 | 72.1
Agtr1b | SID363571831 | 80.2 | 58.2
Eftud2 | SID363568982 | 110 | 82.4
Eftud2 | SID363583414 | 90.2 | 86.1
Hmgxb4 | SID363540364 | 79 | 86
Hmgxb4 | SID363542116 | 111 | 76.7
Hmgxb4 | SID363567032 | 106 | 97.5
Bmp1 | SID363546955 | 72.4 | 63.2
Bmp1 | SID363549767 | 89.5 | 86.9
Bmp1 | SID363587821 | 132 (active) | 153
Arhgef25 | SID363545602 | 136 (active) | 44.5
Arhgef25 | SID363549115 | 76.8 | 77
Arhgef25 | SID363562921 | 83.3 | 89.1
Mfap5 | SID363553866 | 62.5 | 66.8
Mfap5 | SID363561823 | 50.8 | 70.1
Mfap5 | SID363565561 | 82.2 | 48.1
Tpst1 | SID363570585 | 72.7 | 101
Tpst1 | SID363579385 | 63.1 | 123
Tpst1 | SID363583257 | 112 | 137
Rab40b | SID363570034 | 113 | 124
Rab40b | SID363576370 | 156 (active) | 89.9
Rab40b | SID363579538 | 92.1 | 54.9
Lce1e | SID363540577 | 75.2 | 76.9
Lce1e | SID363543028 | 111 | 74.9
Lce1e | SID363552521 | 81.2 | 65.6
Sorl1 | SID363568714 | 50.1 | 76.6
Sorl1 | SID363576106 | 26.6 | 41.5
Sorl1 | SID363578922 | 89 | 87.1
Mindy2 | SID363546755 | 73.9 | 78.3
Mindy2 | SID363548511 | 75.3 | 76.9
Mindy2 | SID363560689 | 62.9 | 61.8
Fitm1 | SID363540584 | 70.9 | 81
Fitm1 | SID363543035 | 58 | 67
Fitm1 | SID363552528 | 54.3 | 86
Nup133 | SID363562388 | 60.9 | 67.3
Nup133 | SID363567526 | 46.1 | 67.4
Nup133 | SID363584883 | 76.5 | 63.7
Rnf121 | SID363555010 | 91.6 | 87.7
Rnf121 | SID363568457 | 75.4 | 72.4
Rnf121 | SID363586516 | 60.3 | 87.9
Cks2 | SID363550144 | 101 | 90.1
Cks2 | SID363564653 | 131 (active) | 76.8
Cks2 | SID363588198 | 102 | 110
Hsf2 | SID363573741 | 90.3 | 107
Hsf2 | SID363581485 | 44.9 | 72
Hsf2 | SID363583949 | 98.4 | 108
Dynll1 | SID363539553 | 82.1 | 81.2
Dynll1 | SID363560854 | 140 (active) | 79.7
Dynll1 | SID363564944 | 66.8 | 69.7
Tmem215 | SID363542796 | 62.3 | 58.9
Tmem215 | SID363546313 | 83.6 | 73.8
Tmem215 | SID363548069 | 64.8 | 75.3
Rapgef6 | SID363570177 | 37.8 | 43.2
Rapgef6 | SID363576513 | 72.5 | 75.4
Rapgef6 | SID363579681 | 73.6 | 67.6
Tor1a | SID363581679 | 86.4 | 97.4
Tor1a | SID363589173 | 67.4 | 61.1

Ordered by “GFP, % of control” (lowest first): 15 of the entries above
Gene | PubChem SID | GFP, % of control | viability (ATP), % of control
Hsf2 | SID363581485 | 44.9 | 72
Nup133 | SID363567526 | 46.1 | 67.4
Fitm1 | SID363552528 | 54.3 | 86
Rnf121 | SID363586516 | 60.3 | 87.9
Nup133 | SID363562388 | 60.9 | 67.3
Rnf121 | SID363568457 | 75.4 | 72.4
Nup133 | SID363584883 | 76.5 | 63.7
Dynll1 | SID363539553 | 82.1 | 81.2
Hsf2 | SID363573741 | 90.3 | 107
Rnf121 | SID363555010 | 91.6 | 87.7
Hsf2 | SID363583949 | 98.4 | 108
Cks2 | SID363550144 | 101 | 90.1
Cks2 | SID363588198 | 102 | 110
Cks2 | SID363564653 | 131 (active) | 76.8
Dynll1 | SID363560854 | 140 (active) | 79.7

The listing continues:
Gene | PubChem SID | GFP, % of control | viability (ATP), % of control
Mrgprb5 | SID363544138 | 45.4 | 55.1
Mrgprb5 | SID363550466 | 75.2 | 72.6
Mrgprb5 | SID363557015 | 69.8 | 82.9
Ap4s1 | SID363547678 | 103 | 60.9
Ap4s1 | SID363558447 | 46.7 | 42.6
Ap4s1 | SID363560205 | 58.9 | 91.3
Ift122 | SID363556891 | 55.5 | 57.9
Ift122 | SID363563795 | 69.7 | 62.5
Ift122 | SID363587341 | 89.5 | 92.3
Myo1d | SID363541410 | 93.2 | 83.8
Myo1d | SID363556037 | 63 | 44.9
Myo1d | SID363566326 | 86.7 | 78.5
Ms4a4c | SID363544163 | 122 (active) | 98.3
Ms4a4c | SID363550491 | 85.9 | 50.4
Ms4a4c | SID363557040 | 124 (active) | 119
Unc50 | SID363556824 | 70 | 77.6
Unc50 | SID363563728 | 70.9 | 45.1
Unc50 | SID363587274 | 79.1 | 94.5
Etfbkmt | SID363545218 | 52.6 | 38.3
Etfbkmt | SID363548731 | 59.4 | 74.4
Etfbkmt | SID363562537 | 50.4 | 53.2
2210016L21Rik | SID363543369 | 95.2 | 77.7
2210016L21Rik | SID363552862 | 65.1 | 73.9
2210016L21Rik | SID363558710 | 98.5 | 97.4
Adcy5 | SID363573073 | 76.5 | 82.1
Adcy5 | SID363577649 | 56.4 | 44.1
Adcy5 | SID363581169 | 108 | 95
Rab1b | SID363570329 | 80.4 | 77.5
Rab1b | SID363576665 | 85.1 | 63.9
Rab1b | SID363579833 | 52.9 | 81.2
Mbd6 | SID363550057 | 87.8 | 85
Mbd6 | SID363564566 | 56.7 | 63.5
Mbd6 | SID363588111 | 81.6 | 81.6
Or10g6 | SID363544799 | 60.3 | 61.6
Or10g6 | SID363551127 | 94 | 103
Or10g6 | SID363557676 | 75.1 | 58.9
